Read-outs that look alike come from different tables or passages of the source. For part of these data: For at least one compound, name, drawing or mass did not settle the structure. Some entries share one result that the patent states for a list of compounds.
How the values were obtained:
DU145 cells = assay: SRB growth inhibition and combination index with cisplatin, DU145; assay type: cell-based; conditions: curcumin:cisplatin ratio 4:5
Method: (§1) The affected fractions were calculated from the SRB or MTT assay absorbance values and were registered to derive the respective CI values and isobolograms. A CI value of less than 1 (one) indicates synergy.
(§2) The SRB assay was used to assess cell growth inhibition by IE-8 alone and in combination with cisplatin. […] For combination studies drug treatments were sequential with IE-8 applied first followed by cisplatin for 1 h. […] Absorbance was read at 540 nm and results were normalized to untreated controls. For analysis of GC50 values and statistical significance, non-linear regression analysis with a comparison of fits was performed with the GraphPad Prism 6.0 software.
as §2, with “Drug Combination studies. Sulforhodamine B (SRB) Cell Growth Inhibition Assay. The” for “The”, “8 h” for “IE-8”

pStat3^Tyr705 = assay: Immunoblotting of phosphorylated Stat3 in cancer cells; assay type: cell-based, human; conditions: DU145 and A549 cells with constitutively active Stat3, 18 h
Method: Whole cell lysates were prepared by incubation of harvested, trypsinised cells with CelLytic™ lysis buffer (Sigma-Aldrich) supplemented with 1× protease and 1× phosphatase inhibitors (Roche). Protein quantification was carried out using a protein assay kit (Bio-Rad). 40 μg of the lysates were denatured by heating for 5 min at 95° C. in sample buffer containing 100 mM Tris-Cl (pH 6.8), 4% SDS, 10% 2-mercaptoethanol, 20% glycerol, and 0.02% bromophenol blue. Precision Plus Protein Dual colour standards (Bio-Rad) were used as a molecular weight reference. For the detection of STAT3, pSTAT3, α/β tubulin, cleaved PARP, Bcl-2, Bcl-xL, FANCD2, BRCA1, EME1 and MUS81, proteins were separated on a NuPAGE 7% Tris-acetate gel (Life Technologies) and subsequently transferred to polyvinylidene difluoride membranes (Immobilon®-P transfer membrane; Millipore). […] Membranes were blocked for 1 h at ambient temperature in a blocking buffer containing 5% w/v Bovine Serum Albumin (BSA; Sigma-Aldrich) in 1×TBS, 0.1% Tween-20. All proteins were identified by incubation in a 1:1000 dilution of the respective polyclonal antibodies (Cell signaling) in blocking buffer overnight at 4° C. and subsequent incubation for 1 h with an anti-rabbit or anti-mouse secondary antibody (Cell signalling) at a dilution of 1:1000. […]
Immunoblotting. […] Protein quantification was carried out using a protein assay kit (Bio-Rad). […]

A549 cells = assay: SRB growth inhibition and combination index with cisplatin, A549; assay type: cell-based, human; conditions: curcumin:cisplatin ratio 4:5
Method: as §1, §2
as §2, with “Drug Combination studies. Sulforhodamine B (SRB) Cell Growth Inhibition Assay. The” for “The”, “8 h” for “IE-8”

L1210 (lymphoma) cells = assay: MTT cytotoxicity assay, L1210 cells
B16 (melanoma) cells = assay: MTT cytotoxicity assay, B16 cells; conditions: read-out: IC50 (μM) B16, 72 h exposure, mean of three independent experiments, listed as 8c

With `COc1cc(/C=C/C(=O)CC(=O)/C=C/c2ccc(O)c(OC)c2)ccc1O` [Curcumin] the “combination index analysis with cisplatin” value (DU145 cells) was “lower levels of synergy within a narrower range of doses”, the “inhibition of Stat3 tyrosine (705) phosphorylation (pStat3)” value (pStat3^Tyr705) was “much higher doses are required” and the “combination index analysis with cisplatin” value (A549 cells) was “lower levels of synergy”.

`O=C1/C(=C/c2ccc([N+](=O)[O-])cc2)CN(c2ccccc2)C/C1=C\c1ccc([N+](=O)[O-])cc1` [IE-3, 3,5-Di(4-nitrobenzylidene)-1-phenylpiperidin-4-one] showed an IC50 (L1210 (lymphoma) cells; read-out: IC50 (μM) L1210, 72 h exposure, mean of three independent experiments, listed as 8c) of 25 to 65 µM and an IC50 (B16 (melanoma) cells) of 25 to 65 µM.

`COc1ccc(/C=C2\CN(c3ccccc3)C/C(=C\c3ccc(OC)cc3)C2=O)cc1` [IE-4, 3,5-Di(4-methoxybenzylidene)-1-phenylpiperidin-4-one] was tested, and the IC50 (L1210 (lymphoma) cells; read-out: IC50 (μM) L1210, 72 h exposure, mean of three independent experiments, listed as 8d) was 25 to 65 µM.

Source: patent publication US11964943B2, “3,5-diarylidenyl-n-substituted-piperid-4-one-derived inhibitors of Stat3 pathway activity and uses thereof” (priority 2017, dated 2024)
